Measurements reported in PubChem BioAssay AID504791 (Drosophila RNAi Screening Center, 2011).

Assay: 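Genes whose knock-down strengthens or weakens small-RNA reporter silencing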 (primary screen)
System: Drosophila S2-derived reporter cells
Reagents: long dsRNA against Drosophila genes, about 150-250 ng dsRNA per well (siRNA assay); about 80-120 ng (miRNA assay)
Time to read-out: about 5 days (siRNA assay); about 4 days (miRNA assay)
Challenge: copper sulfate induction of reporters: 25 µM (siRNA assay); 200 mM stated (miRNA assay), 1-2 days before reading
Measurement: 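Dual luciferase assay: Renilla to firefly signal ratio in each well, scaled to the mean ratio of its plate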
Units: stable assay Renilla, run 1 in luminescence; stable assay firefly, run 1 in luminescence
Active means: 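First-pass picks had plate-scaled ratios over 1.5 for the siRNA assay, over 1.6 for the miRNA assay, or under 0.6; two distinct dsRNAs had to score alike on retest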
The screen tested about 23,000 reagents; below is an unselected part of those with a known target gene and a result. Of all reagents, 199 (0.86%) got an active call. 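Plate-scaled ratios behind the calls are not deposited; printed light signals are raw; many rows marked increased or decreased are still called inactive.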 A plus sign joins genes that one reagent is predicted to hit. No sequences are given here. The record does not give: the direction of the score.

target | amplicon | miRNA reporter change | stable assay Renilla, run 1 | stable assay firefly, run 1 | Outcome
eEFSec | DRSC04571 | – | 6874 | 3.56e5 | inactive
CG14277 | DRSC02380 | – | 7468 | 3.65e5 | inactive
flz | DRSC07109 | – | 6827 | 3.95e5 | inactive
CG31050 | DRSC13883 | – | 4839 | 4.10e5 | inactive
CG7326 | DRSC20037 | – | 5783 | 4.44e5 | inactive
bur | DRSC03163 | – | 8788 | 1.30e6 | inactive
CG3107 | DRSC04888 | – | 74857 | 9.65e5 | inactive
Prosalpha4T2 | DRSC04643 | – | 5715 | 2.65e5 | inactive
CG13427 | DRSC06389 | – | 6076 | 4.56e5 | inactive
Rab10 | DRSC20572 | reporter ratio raised past the hit cutoff | 6419 | 3.23e5 | inactive
CG31327 | DRSC13019 | – | 3356 | 3.54e5 | inactive
Pos | DRSC15415 | – | 6398 | 4.22e5 | inactive
BTBD9 | DRSC18148 | – | 4852 | 3.69e5 | inactive
BTBD9 | DRSC22371 | reporter ratio raised past the hit cutoff | 8353 | 4.14e5 | inactive
CG14355 | DRSC14818 | – | 9429 | 6.57e5 | inactive
Gip | DRSC18667 | – | 4452 | 4.51e5 | inactive
janA | DRSC16972 | – | 6948 | 4.27e5 | inactive
Prx6c + CG12896 + Prx6b | DRSC06148 | – | 5439 | 3.01e5 | inactive
Prx6c + CG12896 + Prx6b | DRSC28111 | reporter ratio lowered past the hit cutoff | – | – | inactive
Top3beta | DRSC18724 | – | 8256 | 5.41e5 | inactive
Rtca | DRSC18517 | – | 8691 | 5.42e5 | inactive
U2af38 | DRSC00796 | reporter ratio lowered past the hit cutoff | 10197 | 7.35e5 | inactive
PolD1 | DRSC11138 | – | 9137 | 3.94e5 | inactive
wbl | DRSC07718 | – | 5871 | 2.89e5 | inactive
CG13086 | DRSC02190 | – | 7163 | 4.70e5 | inactive
Cyp6a19 | DRSC07379 | – | 8821 | 4.41e5 | inactive
ppk18 | DRSC02216 | – | 6799 | 3.70e5 | inactive
CG10939 | DRSC06019 | – | 12259 | 5.95e5 | inactive
CG10939 | DRSC21734 | – | 7890 | 3.88e5 | inactive
ball | DRSC14145 | – | 8154 | 4.13e5 | inactive
ATbp | DRSC20906 | – | 4587 | 2.92e5 | inactive
lncRNA:CR31526 | DRSC21520 | – | 9818 | 6.16e5 | inactive
CG5510 | DRSC15823 | – | 6798 | 3.56e5 | inactive
CG15443 | DRSC00455 | – | 9725 | 6.24e5 | inactive
Inx6 | DRSC20579 | – | 7619 | 4.70e5 | inactive
CG34273 | DRSC13041 | – | 4431 | 3.01e5 | inactive
bs | DRSC04676 | – | 3051 | 2.13e5 | inactive
bs | DRSC23068 | – | 4231 | 4.19e5 | inactive
rept | DRSC11388 | – | 5664 | 4.13e5 | inactive
CG10307 | DRSC04057 | – | 12754 | 7.14e5 | inactive
Cpr76Bc | DRSC11062 | – | 7866 | 4.71e5 | inactive
unc-104 | DRSC07710 | – | 6118 | 3.15e5 | inactive
CG8788 | DRSC07267 | – | 6667 | 3.92e5 | inactive
CG6071 | DRSC10579 | – | 5812 | 4.27e5 | inactive
CG3483 | DRSC04371 | – | 24011 | 1.46e6 | inactive
bft (retired record) | DRSC21354 | – | 8123 | 4.27e5 | inactive
RabGGTb | DRSC00804 | – | 12568 | 5.04e5 | inactive
CG34224 | DRSC05269 | – | 6939 | 3.68e5 | inactive
GAA1 | DRSC18267 | – | 8908 | 6.46e5 | inactive
CG14543 | DRSC14887 | reporter ratio raised past the hit cutoff | 9738 | 4.81e5 | inactive
Tgi | DRSC09793 | – | 5460 | 3.21e5 | inactive
Tgi | DRSC09794 | – | 5955 | 3.36e5 | inactive
Vps2 | DRSC14886 | – | 8308 | 3.55e5 | inactive
Sema1b | DRSC07550 | – | 7574 | 3.12e5 | inactive
larp | DRSC14728 | – | 6159 | 4.12e5 | inactive
larp | DRSC16984 | – | 6835 | 3.50e5 | inactive
larp | DRSC21856 | – | 9439 | 6.99e5 | inactive
mus201 + Chrac-14 | DRSC03568 | – | 7119 | 4.01e5 | inactive
mus201 + Chrac-14 | DRSC03575 | – | 7758 | 4.37e5 | inactive
CG9815 | DRSC04567 | – | 5342 | 3.32e5 | inactive
CG7492 | DRSC10855 | – | 7731 | 4.00e5 | inactive
or | DRSC04329 | – | 6212 | 3.81e5 | inactive
lncRNA:CR32368 | DRSC08899 | – | 3651 | 3.59e5 | inactive
l(3)73Ah + CG32163 | DRSC21888 | – | 10110 | 6.80e5 | inactive
Grl43a | DRSC06383 | – | 6822 | 3.34e5 | inactive
CG34256 | DRSC09582 | – | 6360 | 5.01e5 | inactive
Klp31E | DRSC03354 | – | 9136 | 7.45e5 | inactive
Ctl2 | DRSC14423 | – | 6895 | 5.25e5 | inactive
CG32027 (retired record) | DRSC09571 | – | 5902 | 4.45e5 | inactive
CG7126 | DRSC16201 | – | 6166 | 3.00e5 | inactive
Oct-TyrR | DRSC11883 | – | 7924 | 4.20e5 | inactive
snz | DRSC17969 | – | 6623 | 4.06e5 | inactive
CG14370 | DRSC14832 | – | 6546 | 4.09e5 | inactive
aub | DRSC03486 | – | 2.18e5 | 1.28e6 | inactive
Hsp60B | DRSC00542 | – | 19555 | 1.38e5 | inactive
Bem46 | DRSC00275 | – | 7094 | 6.02e5 | inactive
CG10602 | DRSC02075 | – | 1.71e5 | 1.60e6 | inactive
mRpS28 | DRSC06939 | – | 5712 | 3.32e5 | inactive
mRpL9 | DRSC15678 | – | 5787 | 3.53e5 | inactive
eIF4E4 | DRSC09701 | – | 7990 | 5.41e5 | inactive
CG15249 | DRSC17978 | – | 4627 | 3.16e5 | inactive
CCHa1 | DRSC14821 | – | 4956 | 2.50e5 | inactive
mrva | DRSC11009 | – | 4263 | 4.06e5 | inactive
mrva | DRSC21842 | – | 9454 | 7.25e5 | inactive
